Test results taken from paper PMC2694982.
Results are given in words; binding and its absence hold for the method and conditions named. In cells and extracts the contact can be indirect. Here binding means that the protein was enriched with, or labelled near, the bait; the list need not be complete.

Chains of the proteins cited; added tags and fusions are not shown. Lines headed by an entry give the natural chain unless they say otherwise; changes in a name come on top.
UniProt Q9LHA6: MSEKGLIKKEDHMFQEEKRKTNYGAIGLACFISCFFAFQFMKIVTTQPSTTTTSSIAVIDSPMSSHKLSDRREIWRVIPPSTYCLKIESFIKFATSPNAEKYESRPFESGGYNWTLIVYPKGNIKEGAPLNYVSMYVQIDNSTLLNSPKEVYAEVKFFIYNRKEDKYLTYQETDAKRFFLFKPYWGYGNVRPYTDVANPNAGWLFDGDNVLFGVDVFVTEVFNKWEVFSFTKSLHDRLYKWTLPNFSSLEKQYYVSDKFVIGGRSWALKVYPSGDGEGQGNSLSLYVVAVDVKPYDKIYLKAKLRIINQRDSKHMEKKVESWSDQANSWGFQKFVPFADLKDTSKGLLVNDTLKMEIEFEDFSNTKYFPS

T1: RIN4 (Arabidopsis thaliana (endogenous in leaves)) (UniProt Q8GYN5)
T1 sequence: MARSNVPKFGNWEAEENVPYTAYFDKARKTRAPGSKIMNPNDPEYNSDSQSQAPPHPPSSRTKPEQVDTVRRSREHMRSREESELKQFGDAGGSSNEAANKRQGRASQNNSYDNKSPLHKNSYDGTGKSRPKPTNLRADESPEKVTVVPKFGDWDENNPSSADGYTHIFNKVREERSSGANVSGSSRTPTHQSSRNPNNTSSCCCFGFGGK

B1: ERD4 (Early Responsive to Dehydration 4) (protein, UniProt Q9C8G5 1-724)
chain: MEFGSFLVSLGTSFVIFVILMLLFTWLSRKSGNAPIYYPNRILKGLEPWEGTSLTRNPFAWMREALTSSEQDVVNLSGVDTAVHFVFLSTVLGIFACSSLLLLPTLLPLAATDNNIKNTKNATDTTSKGTFSQLDNLSMANITKKSSRLWAFLGAVYWISLVTYFFLWKAYKHVSSLRAQALMSADVKPEQFAILVRDMPAPPDGQTQKEFIDSYFREIYPETFYRSLVATENSKVNKIWEKLEGYKKKLARAEAILAATNNRPTNKTGFCGLVGKQVDSIEYYTELINESVAKLETEQKAVLAEKQQTAAVVFFTTRVAAASAAQSLHCQMVDKWTVTEAPEPRQLLWQNLNIKLFSRIIRQYFIYFFVAVTILFYMIPIAFVSAITTLKNLQRIIPFIKPVVEITAIRTVLESFLPQIALIVFLAMLPKLLLFLSKAEGIPSQSHAIRAASGKYFYFSVFNVFIGVTLAGTLFNTVKDIAKNPKLDMIINLLATSLPKSATFFLTYVALKFFIGYGLELSRIIPLIIFHLKKKYLCKTEAEVKEAWYPGDLSYATRVPGDMLILTITFCYSVIAPLILIFGITYFGLGWLVLRNQALKVYVPSYESYGRMWPHIHQRILAALFLFQVVMFGYLGAKTFFYTALVIPLIITSLIFGYVCRQKFYGGFEHTALEVACRELKQSPDLEEIFRAYIPHSLSSHKPEEHEFKGAMSRYQDFNAIAGV
B2: Jacalin domain protein (At3g16420) (protein, UniProt O04314 1-298)
chain: MAQKVEAQGGKGANLWDDGSTHDAVTKIQLAAGIDGIQYVQFDYVKNGQPEQAPLRGTKGRVLPADPFVINHPDEHLVSVEGWYSPEGIIQGIKFISNKKTSDVIGSDEGTHFTLQVKDKKIIGFHGSAGGNLNSLGAYFAPLTTTTPLTPAKQLTAFGSDDGTVWDDGAYVGVKKVYVGQAQDGISAVKFVYDKSPEEVTGEEHGKSTLLGFEEFVLDYPSEYITAVDGTYDKIFGSDGSVITMLRFKTNKQTSPPFGLEAGTVFELKEEGHKIVGFHGRADVLLHKIGVHVRPLSN
B3: Jacalin domain protein (At1g52000) (protein, UniProt Q9ZU23 1-730)
chain: MSWDDGKHTKVKRVQLTFDDVIRSIEVEYDGTSLKSQPRGTAGTKIDGFTLSSDEYITEVNGYYKTTFSGEVITSLTFKTNKRTYGTYGNKTSSYFSVAAPKDNQIVGFLGSSSHALNSIDAHFAPAPPPGSTGAKPGASGIGSDSGSIGSAGTNPGADGTRETEKNAGGSKPSSGSAGTNPGASAVGNGETEKNAGGSKPSSGSAGTNPGASAGGNGETEKNVGGSKPSSGKAGTNPGANAGGNGGTEKNAGGSKSSSGSARTNPGASAGGNGETVSNIGDTESNAGGSKSNDGANNGASGIESNAGSTGTNFGAGGTGGIGDTESDAGGSKTNSGNGGTNDGASGIGSNDGSTGTNPGAGGGTDSNIEGTENNVGGKETNPGASGIGNSDGSTGTSPEGTESNADGTKTNTGGKESNTGSESNTNSSPQKLEAQGGNGGNQWDDGTDHDGVMKIHVAVGGLGIEQIRFDYVKNGQLKEGPFHGVKGRGGTSTIEISHPDEYLVSVEGLYDSSNIIQGIQFQSNKHTSQYFGYEYYGDGTQFSLQVNEKKIIGFHGFADSHLNSLGAYFVPISSSSSSLTPPPNKVKAQGGSYGETFDDGAFDHVRKVYVGQGDSGVAYVKFDYEKDGKKETQEHGKMTLSGTEEFEVDSDDYITSMEVYVDKVYGYKSEIVIALTFKTFKGETSPRFGIETENKYEVKDGKGGKLAGFHGKASDVLYAIGAYFIPAAN
B4: Remorin (At3g61260) (protein, UniProt Q9M2D8 1-212)
chain: MAEEQKIALESESPAKVTTPAPADTPAPAPAEIPAPAPAPTPADVTKDVAEEKIQNPPPEQIFDDSKALTVVEKPVEEPAPAKPASASLDRDVKLADLSKEKRLSFVRAWEESEKSKAENKAEKKIADVHAWENSKKAAVEAQLKKIEEQLEKKKAEYAERMKNKVAAIHKEAEERRAMIEAKRGEDVLKAEETAAKYRATGIVPKATCGCF

These molecules were tested against T1, RIN4 (Arabidopsis thaliana (endogenous in leaves)) (assay: affinity purification with mass spectrometry; affinity-purified anti-RIN4 antibody coupled to Protein A beads, whole leaf extract in 50 mM HEPES, 50 mM NaCl, 10 mM EDTA, 0.2% Triton X-100, pH 7.5, 3 h at 4°C; washes with 50 mM and 150 mM NaCl; elution at pH 2.5; LC-MS/MS; three biological …; negative control rps2-101c/rin4).

binding, binds:
MATH domain protein (At3g28220) (from UniProt Q9LHA6)
B1
B2
B3
B4
